Test results published in PubChem BioAssay AID248 (DTP/NCI, 2004).
The list does not hold the whole screen: it gathers tests that were run many times, whatever their T/C, doses with no T/C, and many T/C values between a quarter and a half above the control. Other doses and runs of a compound stand elsewhere. T/C gives the treated animals as a percentage of the vehicle group. Some entries give survivors of the animals treated and no T/C: the source files T/C as zero there, which appears to mark a toxic dose or a test without result, not a measured value. Some survivor counts are full or nearly so, which does not show that the dose was tolerated: survival well below the control is almost never listed, so the zero probably covers shortened survival too. Counts of survivors are from the toxicity check (mostly the fifth day) where no day follows; animals may have died later. Schedules are NCI's codes, taken here to give the interval after Q, in days (D) or hours (H), and the number of doses after X. Some doses were run more than once; the results are listed from low to high. Some schedule codes hold Z or #, which are not explained here. Where survival is the endpoint, the PubChem record calls one and a half times the control and up active, and a quarter to a half above the control has no call in these data; cut-offs in other NCI protocols can differ. Counts like (3×) stand for listed records that agree. Some T/C values are followed by the survivors on the day toxicity was checked, most often the fifth; without a count, all were alive then.

System: L1210 leukemia ip in BDF1 mice, survival T/C
Test: NCI In Vivo Anticancer Drug Screen. Data for tumor model L1210 Leukemia (intraperitoneal) in B6D2F1 (BDF1) mice
Details: T/C endpoint: mean survival time, higher T/C = longer survival
[1] = dose: 12.0 micrograms/kg/injection, schedule: Q01DX Z (ip), vehicle: carboxymethylcellulose (CMC)
[2] = dose: 18.0 micrograms/kg/injection, schedule: Q01DX Z (ip), vehicle: carboxymethylcellulose (CMC)

Cc1c2oc3c(C)ccc(C(=O)N[C@@H]4C(=O)N[C@H](C(C)C)C(=O)N5CCC[C@H]5C(=O)N(C)CC(=O)N(C)[C@@H](C(C)C)C(=O)O[C@H]4C)c3nc-2c(C(=O)N[C@@H]2C(=O)N[C@H](C(C)C)C(=O)N3CCC[C@H]3C(=O)N(C)CC(=O)N(C)[C@@H](C(C)C)C(=O)O[C@H]2C)c(N)c1=O
T/C (dose: 0.02 mg/kg/injection, schedule: Q01DX009 (ip), vehicle: water, evaluated on day 5): 134 % of control
T/C (dose: 0.02 mg/kg/injection, schedule: Q01DX009 (ip), vehicle: water, evaluated on day 60): 134 % of control
T/C (dose: 0.02 mg/kg/injection, schedule: Q01DX Z (ip), vehicle: saline): 125 and 133 % of control
T/C (dose: 0.03 mg/kg/injection, schedule: Q01DX009 (ip), vehicle: water, evaluated on day 5): 140 % of control
T/C (dose: 0.03 mg/kg/injection, schedule: Q01DX009 (ip), vehicle: water, evaluated on day 60): 140 % of control
T/C (dose: 0.03 mg/kg/injection, schedule: Q01DX Z (ip), vehicle: saline): 125 and 142 % of control
T/C (dose: 0.04 mg/kg/injection, schedule: Q01DX Z (ip), vehicle: carboxymethylcellulose (CMC)): 141 % of control
T/C (dose: 0.04 mg/kg/injection, schedule: Q02DX010 (ip), vehicle: carboxymethylcellulose (CMC)): 125 and 127 % of control
T/C (dose: 0.04 mg/kg/injection, schedule: Q02DX010 (ip), vehicle: saline): 116, 124, 125, 129 % of control
T/C (dose: 0.05 mg/kg/injection, schedule: Q01DX009 (ip), vehicle: other): 125 % of control
T/C (dose: 0.05 mg/kg/injection, schedule: Q01DX009 (ip), vehicle: saline + alcohol): 140 % of control
T/C (dose: 0.05 mg/kg/injection, schedule: Q01DX Z (ip), vehicle: saline): 141 and 142 % of control
T/C (dose: 0.07 mg/kg/injection, schedule: Q02DX010 (ip), vehicle: carboxymethylcellulose (CMC)): 127 % of control (2×)
T/C (dose: 0.07 mg/kg/injection, schedule: Q02DX010 (ip), vehicle: other): 129 % of control
T/C (dose: 0.07 mg/kg/injection, schedule: Q02DX010 (ip), vehicle: saline): 122, 127 (2×), 182 % of control
T/C (dose: 0.07 mg/kg/injection, schedule: Q04DX003 (ip), vehicle: saline + alcohol): 132 % of control
T/C (dose: 0.08 mg/kg/injection, schedule: Q01DX Z (ip), vehicle: carboxymethylcellulose (CMC)): 141 % of control [9 of 10 alive]
T/C (dose: 0.1 mg/kg/injection, schedule: Q01DX009 (ip), vehicle: saline): 136 % of control
T/C (dose: 0.1 mg/kg/injection, schedule: Q02DX010 (ip), vehicle: carboxymethylcellulose (CMC)): 127 and 139 % of control
T/C (dose: 0.1 mg/kg/injection, schedule: Q02DX010 (ip), vehicle: other): 139 % of control
T/C (dose: 0.1 mg/kg/injection, schedule: Q02DX010 (ip), vehicle: saline): 118, 131, 138, 143 % of control
survivor count (dose: 0.12 mg/kg/injection, schedule: Q01DX Z (ip), vehicle: carboxymethylcellulose (CMC)): 9 of 10
T/C (dose: 0.15 mg/kg/injection, schedule: Q02DX010 (ip), vehicle: carboxymethylcellulose (CMC)): 140 % of control
T/C (dose: 0.15 mg/kg/injection, schedule: Q02DX010 (ip), vehicle: saline): 83, 109, 134, 137 % of control
T/C (dose: 0.15 mg/kg/injection, schedule: Q04DX003 (ip), vehicle: saline + alcohol): 131 % of control
survivor count (dose: 0.16 mg/kg/injection, schedule: Q01DX Z (ip), vehicle: carboxymethylcellulose (CMC)): 10 of 10
T/C (dose: 0.2 mg/kg/injection, schedule: Q01DX001 (ip), vehicle: saline + alcohol): 127 % of control
survivor count (dose: 0.2 mg/kg/injection, schedule: Q01DX009 (ip), vehicle: other): 6 of 6
survivor count (dose: 0.2 mg/kg/injection, schedule: Q01DX010 (ip), vehicle: other): 5 of 6 and 6 of 6
survivor count (dose: 0.2 mg/kg/injection, schedule: Q01DX Z (ip), vehicle: carboxymethylcellulose (CMC)): 8 of 10
T/C (dose: 0.2 mg/kg/injection, schedule: Q04DX003 (ip), vehicle: other): 130 % of control
T/C (dose: 0.2 mg/kg/injection, schedule: Q04DX003 (ip), vehicle: water): 125 % of control
T/C (dose: 0.23 mg/kg/injection, schedule: Q02DX010 (ip), vehicle: saline): 69, 90, 102, 112 % of control
survivor count (dose: 0.25 mg/kg/injection, schedule: Q01DX009 (ip), vehicle: saline): 3 of 6
T/C (dose: 0.26 mg/kg/injection, schedule: Q04DX003 (ip), vehicle: water, evaluated on day 5): 146 % of control
T/C (dose: 0.26 mg/kg/injection, schedule: Q04DX003 (ip), vehicle: water, evaluated on day 30): 141 % of control
T/C (dose: 0.3 mg/kg/injection, schedule: Q01DX001 (ip), vehicle: saline, evaluated on day 5): 117 and 118 % of control
T/C (dose: 0.3 mg/kg/injection, schedule: Q01DX001 (ip), vehicle: saline, evaluated on day 60): 117 and 118 % of control
T/C (dose: 0.3 mg/kg/injection, schedule: Q04DX003 (ip), vehicle: saline + alcohol): 144 % of control
T/C (dose: 0.4 mg/kg/injection, schedule: Q01DX001 (ip), vehicle: saline + alcohol): 129 % of control
T/C (dose: 0.4 mg/kg/injection, schedule: Q01DX001 (ip), vehicle: saline, evaluated on day 5): 111 and 173 % of control
T/C (dose: 0.4 mg/kg/injection, schedule: Q01DX001 (ip), vehicle: saline, evaluated on day 46): 134 % of control
T/C (dose: 0.4 mg/kg/injection, schedule: Q01DX001 (ip), vehicle: saline, evaluated on day 60): 111, 130, 173 % of control
survivor count (dose: 0.4 mg/kg/injection, schedule: Q01DX010 (ip), vehicle: other): 4 of 6 and 6 of 6
T/C (dose: 0.4 mg/kg/injection, schedule: Q04DX003 (ip), vehicle: other): 127 % of control
T/C (dose: 0.4 mg/kg/injection, schedule: Q04DX003 (ip), vehicle: water): 147 % of control
T/C (dose: 0.45 mg/kg/injection, schedule: Q## X004 (ip), vehicle: saline): 137 % of control
T/C (dose: 0.5 mg/kg/injection, schedule: Q01DX001 (ip), vehicle: saline, evaluated on day 5): 122 and 184 % of control
T/C (dose: 0.5 mg/kg/injection, schedule: Q01DX001 (ip), vehicle: saline, evaluated on day 60): 122 and 184 % of control
survivor count (dose: 0.5 mg/kg/injection, schedule: Q01DX009 (ip), vehicle: saline): 6 of 6
T/C (dose: 0.6 mg/kg/injection, schedule: Q01DX001 (ip), vehicle: saline, evaluated on day 5): 125 and 127 % of control
T/C (dose: 0.6 mg/kg/injection, schedule: Q01DX001 (ip), vehicle: saline, evaluated on day 46): 143 % of control
T/C (dose: 0.6 mg/kg/injection, schedule: Q01DX001 (ip), vehicle: saline, evaluated on day 60): 125 and 127 % of control
T/C (dose: 0.67 mg/kg/injection, schedule: Q## X004 (ip), vehicle: saline): 144 % of control
T/C (dose: 0.7 mg/kg/injection, schedule: Q01DX001 (ip), vehicle: saline, evaluated on day 5): 141 % of control
T/C (dose: 0.7 mg/kg/injection, schedule: Q01DX001 (ip), vehicle: saline, evaluated on day 60): 141 % of control
survivor count (dose: 0.8 mg/kg/injection, schedule: Q01DX001 (ip), vehicle: saline + alcohol): 8 of 8
T/C (dose: 0.8 mg/kg/injection, schedule: Q01DX001 (ip), vehicle: saline, evaluated on day 5): 134 % of control
T/C (dose: 0.8 mg/kg/injection, schedule: Q01DX001 (ip), vehicle: saline, evaluated on day 60): 130 and 134 % of control
T/C (dose: 0.9 mg/kg/injection, schedule: Q01DX001 (ip), vehicle: saline): 145 % of control
survivor count (dose: 1.0 mg/kg/injection, schedule: Q04DX003 (ip), vehicle: saline): 4 of 6
T/C (dose: 1.3 mg/kg/injection, schedule: Q01DX001 (ip), vehicle: saline): 126 % of control [7 of 10 alive]
survivor count (dose: 1.6 mg/kg/injection, schedule: Q01DX001 (ip), vehicle: saline + alcohol): 3 of 8
T/C (dose: 1.8 mg/kg/injection, schedule: Q## X032 (ip), vehicle: saline): 136 % of control
survivor count (dose: 2.0 mg/kg/injection, schedule: Q01DX001 (ip), vehicle: saline): 1 of 10
survivor count (dose: 2.0 mg/kg/injection, schedule: Q04DX003 (ip), vehicle: saline): 1 of 6
survivor count (dose: 3.0 mg/kg/injection, schedule: Q01DX001 (ip), vehicle: saline): 1 of 10
T/C (dose: 3.0 mg/kg/injection, schedule: Q#A X Z (ip), vehicle: saline): 130 % of control
T/C (dose: 6.0 mg/kg/injection, schedule: Q#A X Z (ip), vehicle: other): 131 % of control
T/C (dose: 6.0 mg/kg/injection, schedule: Q#A X Z (ip), vehicle: saline): 130 % of control
T/C (dose: 12.5 mg/kg/injection, schedule: Q#A X Z (ip), vehicle: other): 142 % of control
survivor count (dose: 50.0 mg/kg/injection, schedule: Q#A X Z (ip), vehicle: other): 5 of 6
T/C (dose: 6.0 micrograms/kg/injection, schedule: Q01DX010 (ip), vehicle: other): 109, 111, 112, 119 % of control
T/C (dose: 7.0 micrograms/kg/injection, schedule: Q01DX009 (ip), vehicle: saline): 100, 104, 109, 124 % of control
T/C (dose: 12.0 micrograms/kg/injection, schedule: Q01DX010 (ip), vehicle: other): 127 % of control
T/C [1]: 130 % of control
survivor count [1]: 1 of 6
T/C (dose: 12.0 micrograms/kg/injection, schedule: Q01DX Z (ip), vehicle: other): 131 % of control
T/C (dose: 12.5 micrograms/kg/injection, schedule: Q01DX009 (ip), vehicle: saline + alcohol): 132 % of control
T/C (dose: 12.5 micrograms/kg/injection, schedule: Q01DX Z (ip), vehicle: saline): 142 % of control
T/C (dose: 15.0 micrograms/kg/injection, schedule: Q01DX009 (ip), vehicle: saline): 109, 114, 117, 128 % of control
T/C (dose: 16.0 micrograms/kg/injection, schedule: Q01DX009 (ip), vehicle: water, evaluated on day 5): 130 % of control
T/C (dose: 16.0 micrograms/kg/injection, schedule: Q01DX009 (ip), vehicle: water, evaluated on day 30): 126 % of control
T/C [2]: 140 % of control
survivor count [2]: 0 of 6
T/C (dose: 19.0 micrograms/kg/injection, schedule: Q03DX Z (ip), vehicle: saline): 132 % of control
T/C (dose: 20.0 micrograms/kg/injection, schedule: Q01DX015 (ip), vehicle: saline): 128 % of control
T/C (dose: 25.0 micrograms/kg/injection, schedule: Q01DX009 (ip), vehicle: saline + alcohol, evaluated on day 30): 135 % of control
T/C (dose: 25.0 micrograms/kg/injection, schedule: Q01DX009 (ip), vehicle: saline + alcohol, evaluated on day 60): 135 % of control
T/C (dose: 25.0 micrograms/kg/injection, schedule: Q01DX010 (ip), vehicle: other): 114, 123, 134, 145 % of control
T/C (dose: 25.0 micrograms/kg/injection, schedule: Q01DX Z (ip), vehicle: other): 140 % of control
survivor count (dose: 27.0 micrograms/kg/injection, schedule: Q01DX Z (ip), vehicle: carboxymethylcellulose (CMC)): 0 of 6
T/C (dose: 30.0 micrograms/kg/injection, schedule: Q01DX009 (ip), vehicle: saline): 116, 121, 124, 131 % of control
T/C (dose: 30.0 micrograms/kg/injection, schedule: Q01DX015 (ip), vehicle: saline): 133 % of control
